Laboratory results published in paper PMC9939733 (The Journal of Biological Chemistry, 2023).
Changes are numbered by the printed parent chain.

Sequences of proteins named here, by UniProt entry; tags and fusion partners are left off.
UniProt O75874, whole entry R132H: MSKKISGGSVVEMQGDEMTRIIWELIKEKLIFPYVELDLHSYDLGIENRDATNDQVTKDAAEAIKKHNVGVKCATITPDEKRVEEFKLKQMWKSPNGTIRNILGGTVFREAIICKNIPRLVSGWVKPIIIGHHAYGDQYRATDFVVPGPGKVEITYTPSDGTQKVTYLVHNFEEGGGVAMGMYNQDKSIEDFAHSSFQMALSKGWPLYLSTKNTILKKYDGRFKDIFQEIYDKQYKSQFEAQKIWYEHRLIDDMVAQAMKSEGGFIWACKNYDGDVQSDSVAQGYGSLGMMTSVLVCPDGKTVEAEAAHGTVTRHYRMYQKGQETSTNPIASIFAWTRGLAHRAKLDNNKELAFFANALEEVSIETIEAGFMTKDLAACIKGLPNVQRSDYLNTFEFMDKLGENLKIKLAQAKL

Columns and labels:
Format in all cases: biochemical
[1] = target: T1, R172K IDH2 (Homo sapiens, UniProt P48735, R172K); assay: Absorbance assay, variant activity in the presence of equimolar 2OG (inhibition screen); conditions: 1.0 mM 2OG and 1.0 mM test compound, 0.03 μM R172K IDH2, 50 μM NADPH
T1 construct: made in house; host or cells: Sf21 insect cells (cell pellets prepared at Evotec)
T1 sequence (P48735 40-452 R172K): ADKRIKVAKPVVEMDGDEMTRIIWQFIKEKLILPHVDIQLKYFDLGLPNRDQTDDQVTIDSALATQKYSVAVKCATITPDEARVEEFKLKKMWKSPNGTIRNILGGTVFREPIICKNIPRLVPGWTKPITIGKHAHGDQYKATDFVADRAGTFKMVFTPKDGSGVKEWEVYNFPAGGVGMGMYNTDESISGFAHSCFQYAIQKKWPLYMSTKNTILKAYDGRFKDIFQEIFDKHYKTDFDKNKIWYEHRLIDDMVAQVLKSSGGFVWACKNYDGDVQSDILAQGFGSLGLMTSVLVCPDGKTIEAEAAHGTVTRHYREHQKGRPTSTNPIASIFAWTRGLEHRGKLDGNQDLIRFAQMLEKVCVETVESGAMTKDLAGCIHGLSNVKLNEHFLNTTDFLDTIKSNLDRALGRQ
Description: (§1) Compounds were dispensed using a CyBio SDW-CW CyBi-Well Simultaneous Pipettor and assay started using a ThermoFisher Multidrop Combi reagent dispenser.
(§2) Reactions were performed as technical quadruplicates.

[2] = target: T2, WT IDH2 (Homo sapiens, UniProt P48735); assay: Absorbance assay, WT activity in the presence of equimolar DL-isocitrate (inhibition); conditions: […] isocitrate and […] test compound, 75 μM NADP+, 2.0 nM WT IDH2
T2 construct: made in house; host or cells: Sf21 insect cells (cell pellets prepared at Evotec)
T2 sequence (P48735 40-452): T1 sequence (P48735 40-452 R172K) with K133R
Description: as §1, §2

[3] = target: T3, R132H IDH1 (Homo sapiens, UniProt O75874, R132H); assay: Absorbance assay, variant activity in the presence of equimolar 2OG (inhibition screen); design: made in house; host or cells: Escherichia coli BL21(DE3) pLyS; conditions: […] 2OG and […] test compound, 0.03 μM R132H IDH1, 50 μM NADPH
Description: as §1, §2

[4] = target: T1, R172K IDH2; assay: Absorbance assay (NADPH consumption), substrate turnover in the absence of 2OG; conditions: no 2OG; 1.0 mM test compound, 0.03 μM R172K IDH2, 50 μM NADPH; 2OG = 100
Description: as §1, §2

[5] = target: T3, R132H IDH1; assay: as above; design: made in house; host or cells: Escherichia coli BL21(DE3) pLyS; conditions: no 2OG; […] test compound, 0.03 μM R132H IDH1, 50 μM NADPH; 2OG = 100
Description: as §1, §2

O=C(O)C(=O)Cc1ccc(O)cc1 [hydroxyphenylpyruvic acid]
activity [%] (%-substrate conversion after 20 min incubation) [1]: 97 ± 6% | activity [%] (%-substrate conversion after 20 min incubation) [2]: 96 ± 5% | activity [%] (%-substrate conversion after 20 min incubation) [3]: 76 ± 1% | activity [%] (%-substrate conversion after 20 min incubation) [4]: < 10% | activity [%] (%-substrate conversion after 20 min incubation) [5]: < 10%
